US20180346562A1 (ANAPTYSBIO, published 2018)
Results are given in words; binding and its absence hold for the method and conditions named. Some binding calls cover weakened binding; strength is not graded here.

Legend:
[1] = target: T1, human IL-33 (human, UniProt O95760 112-270, limits assumed); test: KinExA
T1 sequence (looked up): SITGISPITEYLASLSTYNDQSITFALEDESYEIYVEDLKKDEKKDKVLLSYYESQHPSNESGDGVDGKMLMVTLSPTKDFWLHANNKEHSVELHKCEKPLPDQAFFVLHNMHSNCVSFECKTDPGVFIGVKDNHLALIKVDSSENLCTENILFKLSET

[2] = target: cynomolgus IL-33 (cynomolgus); test: KinExA
[3] = target: T1, human IL-33; test: KinExA solution-phase equilibrium titration: APE4909 at a fixed concentration incubated with human IL-33 as titrant, free antibody captured on beads coated with histidine-tagged human IL-33

binding [1]: binds
binding [2]: binds
binding [3]: binds
B1: APE4909 antibody (antibody, V domains shown)
VH: QVQLMQSGAEVKKPGASVKVSCKASGYTFTSYWMHWVRQAPGQGLEWMGTIYPRNSNTDYNQKFKARVTMTRDTSTSTVYMELSSLRSEDTAVYYCARPLYYYLTSPPTLFWGQGTLVTVSS
VL: DIQLTQSPSFLSASVGDRVTITCKASQDVGTAVAWYQQKPGKAPKLLIYWASTRHTGVPSRFSGSGSGTEFTLTISSLQPEDFATYYCQQAKTYPFTFGSGTKLEIKR
notes: the claims treat these entries as variable regions; It was detected with an anti-human antibody; also called APE04909; APE4909.02 (lot suffix)
